Results as given in the supplement of paper PMC10849652.
Some of the results follow.

The chains behind the UniProt entries cited, without tags or fusion partners. Where a name states a change or a piece, a line headed by the entry shows the natural chain unless it says otherwise.
UniProt P48509: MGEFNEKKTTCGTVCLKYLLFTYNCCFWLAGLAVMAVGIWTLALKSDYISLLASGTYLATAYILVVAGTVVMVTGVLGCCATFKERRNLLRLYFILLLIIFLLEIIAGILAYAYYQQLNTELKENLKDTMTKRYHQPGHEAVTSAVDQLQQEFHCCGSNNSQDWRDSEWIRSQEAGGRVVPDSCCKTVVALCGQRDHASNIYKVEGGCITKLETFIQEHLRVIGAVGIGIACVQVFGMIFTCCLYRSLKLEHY
UniProt Q86X55: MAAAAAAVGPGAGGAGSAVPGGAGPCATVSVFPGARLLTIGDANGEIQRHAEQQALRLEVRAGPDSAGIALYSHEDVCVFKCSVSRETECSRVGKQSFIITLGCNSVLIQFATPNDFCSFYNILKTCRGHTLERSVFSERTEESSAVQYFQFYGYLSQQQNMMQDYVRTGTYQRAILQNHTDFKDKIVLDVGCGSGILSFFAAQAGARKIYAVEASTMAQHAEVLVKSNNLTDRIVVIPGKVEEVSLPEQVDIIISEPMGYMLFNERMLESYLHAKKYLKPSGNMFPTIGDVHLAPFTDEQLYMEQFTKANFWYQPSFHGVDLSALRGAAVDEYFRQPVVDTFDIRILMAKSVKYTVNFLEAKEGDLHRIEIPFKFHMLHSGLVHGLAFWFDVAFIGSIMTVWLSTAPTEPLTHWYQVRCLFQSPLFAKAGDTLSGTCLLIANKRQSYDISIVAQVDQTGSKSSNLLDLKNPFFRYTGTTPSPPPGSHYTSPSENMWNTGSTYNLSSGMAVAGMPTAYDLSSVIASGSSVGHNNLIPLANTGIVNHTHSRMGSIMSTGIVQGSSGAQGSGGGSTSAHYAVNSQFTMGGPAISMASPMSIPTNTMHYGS
UniProt Q96CT7: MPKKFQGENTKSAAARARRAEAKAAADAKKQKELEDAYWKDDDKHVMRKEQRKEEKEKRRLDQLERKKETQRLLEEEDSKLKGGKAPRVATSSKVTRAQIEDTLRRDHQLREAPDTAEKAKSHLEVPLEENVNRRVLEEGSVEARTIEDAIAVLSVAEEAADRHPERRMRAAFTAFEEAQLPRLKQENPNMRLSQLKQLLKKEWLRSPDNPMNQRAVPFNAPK
UniProt P24863: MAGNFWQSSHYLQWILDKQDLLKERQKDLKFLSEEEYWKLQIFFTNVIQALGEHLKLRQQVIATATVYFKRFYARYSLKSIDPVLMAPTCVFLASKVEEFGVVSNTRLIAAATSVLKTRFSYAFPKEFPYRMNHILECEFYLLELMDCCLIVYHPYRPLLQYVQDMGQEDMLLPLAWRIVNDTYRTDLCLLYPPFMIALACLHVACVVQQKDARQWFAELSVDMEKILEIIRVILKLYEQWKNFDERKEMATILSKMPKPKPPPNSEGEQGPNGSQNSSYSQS
UniProt P50990: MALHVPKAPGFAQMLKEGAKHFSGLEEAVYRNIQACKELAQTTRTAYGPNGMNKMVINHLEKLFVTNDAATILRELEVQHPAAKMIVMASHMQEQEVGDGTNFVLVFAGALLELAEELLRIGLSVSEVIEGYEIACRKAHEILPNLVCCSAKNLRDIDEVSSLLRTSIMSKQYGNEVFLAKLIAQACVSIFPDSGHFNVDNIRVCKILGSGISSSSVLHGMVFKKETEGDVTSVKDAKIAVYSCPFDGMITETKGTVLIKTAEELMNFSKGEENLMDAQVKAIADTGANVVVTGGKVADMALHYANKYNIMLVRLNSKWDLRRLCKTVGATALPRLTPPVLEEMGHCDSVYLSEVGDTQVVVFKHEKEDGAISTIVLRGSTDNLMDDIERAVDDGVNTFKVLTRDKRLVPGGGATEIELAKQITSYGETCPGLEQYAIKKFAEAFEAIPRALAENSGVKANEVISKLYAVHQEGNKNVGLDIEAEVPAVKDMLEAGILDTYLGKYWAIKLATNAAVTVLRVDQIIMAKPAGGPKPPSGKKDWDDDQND
UniProt Q9HA77: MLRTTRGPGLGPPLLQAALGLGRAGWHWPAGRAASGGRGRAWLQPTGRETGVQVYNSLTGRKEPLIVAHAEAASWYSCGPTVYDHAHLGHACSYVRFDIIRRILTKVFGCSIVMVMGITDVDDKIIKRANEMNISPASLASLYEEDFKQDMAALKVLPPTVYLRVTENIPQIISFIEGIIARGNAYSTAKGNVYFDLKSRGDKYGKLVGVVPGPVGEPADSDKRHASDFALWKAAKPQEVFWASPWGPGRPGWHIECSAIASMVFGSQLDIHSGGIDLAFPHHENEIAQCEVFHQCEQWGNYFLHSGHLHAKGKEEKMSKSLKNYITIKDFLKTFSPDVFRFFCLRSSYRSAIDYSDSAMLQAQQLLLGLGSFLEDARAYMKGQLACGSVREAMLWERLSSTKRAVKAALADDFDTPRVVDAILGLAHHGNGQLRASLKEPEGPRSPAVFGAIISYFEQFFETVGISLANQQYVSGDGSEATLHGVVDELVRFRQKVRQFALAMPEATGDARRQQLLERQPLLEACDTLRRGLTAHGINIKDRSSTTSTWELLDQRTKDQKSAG
UniProt P86791: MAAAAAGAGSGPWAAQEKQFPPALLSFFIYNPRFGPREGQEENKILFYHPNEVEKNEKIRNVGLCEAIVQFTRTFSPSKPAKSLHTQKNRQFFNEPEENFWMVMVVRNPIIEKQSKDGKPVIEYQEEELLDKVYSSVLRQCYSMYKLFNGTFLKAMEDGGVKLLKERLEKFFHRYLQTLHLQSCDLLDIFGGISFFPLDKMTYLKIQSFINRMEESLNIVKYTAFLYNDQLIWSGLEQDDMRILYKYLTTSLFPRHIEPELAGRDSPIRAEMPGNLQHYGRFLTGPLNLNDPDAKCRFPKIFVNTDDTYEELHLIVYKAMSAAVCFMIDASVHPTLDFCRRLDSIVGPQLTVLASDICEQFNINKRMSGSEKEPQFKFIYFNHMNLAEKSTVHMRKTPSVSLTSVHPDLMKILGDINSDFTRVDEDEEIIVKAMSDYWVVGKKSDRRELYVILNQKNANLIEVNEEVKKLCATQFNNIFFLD
UniProt P20810: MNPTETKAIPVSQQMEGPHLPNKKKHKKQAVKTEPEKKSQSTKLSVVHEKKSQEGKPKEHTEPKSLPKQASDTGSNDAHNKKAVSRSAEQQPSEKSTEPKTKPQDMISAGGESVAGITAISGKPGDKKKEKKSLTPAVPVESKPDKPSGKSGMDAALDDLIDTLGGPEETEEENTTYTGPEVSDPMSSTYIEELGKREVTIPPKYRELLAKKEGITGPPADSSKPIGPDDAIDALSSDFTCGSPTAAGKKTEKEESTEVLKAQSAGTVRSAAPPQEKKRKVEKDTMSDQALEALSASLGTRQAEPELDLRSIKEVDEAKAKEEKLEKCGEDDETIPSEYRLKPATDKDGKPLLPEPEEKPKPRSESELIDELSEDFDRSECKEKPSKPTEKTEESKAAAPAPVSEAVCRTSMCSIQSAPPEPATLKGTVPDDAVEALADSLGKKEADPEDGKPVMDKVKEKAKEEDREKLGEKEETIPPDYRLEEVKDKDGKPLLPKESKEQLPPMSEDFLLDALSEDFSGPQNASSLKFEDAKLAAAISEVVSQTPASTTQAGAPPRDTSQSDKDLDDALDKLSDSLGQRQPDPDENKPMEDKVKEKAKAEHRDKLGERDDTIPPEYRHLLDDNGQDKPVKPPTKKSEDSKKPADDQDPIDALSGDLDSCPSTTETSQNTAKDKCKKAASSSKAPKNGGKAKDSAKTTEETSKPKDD
UniProt Q8IWD4: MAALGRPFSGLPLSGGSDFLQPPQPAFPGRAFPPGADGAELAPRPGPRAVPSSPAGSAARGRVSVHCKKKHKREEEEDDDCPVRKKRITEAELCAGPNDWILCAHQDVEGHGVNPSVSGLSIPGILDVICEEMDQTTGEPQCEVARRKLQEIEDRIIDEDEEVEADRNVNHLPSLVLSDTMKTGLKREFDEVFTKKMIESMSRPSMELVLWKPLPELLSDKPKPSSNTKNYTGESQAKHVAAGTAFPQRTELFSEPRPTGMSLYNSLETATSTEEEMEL
UniProt Q8N163, whole entry, looked up: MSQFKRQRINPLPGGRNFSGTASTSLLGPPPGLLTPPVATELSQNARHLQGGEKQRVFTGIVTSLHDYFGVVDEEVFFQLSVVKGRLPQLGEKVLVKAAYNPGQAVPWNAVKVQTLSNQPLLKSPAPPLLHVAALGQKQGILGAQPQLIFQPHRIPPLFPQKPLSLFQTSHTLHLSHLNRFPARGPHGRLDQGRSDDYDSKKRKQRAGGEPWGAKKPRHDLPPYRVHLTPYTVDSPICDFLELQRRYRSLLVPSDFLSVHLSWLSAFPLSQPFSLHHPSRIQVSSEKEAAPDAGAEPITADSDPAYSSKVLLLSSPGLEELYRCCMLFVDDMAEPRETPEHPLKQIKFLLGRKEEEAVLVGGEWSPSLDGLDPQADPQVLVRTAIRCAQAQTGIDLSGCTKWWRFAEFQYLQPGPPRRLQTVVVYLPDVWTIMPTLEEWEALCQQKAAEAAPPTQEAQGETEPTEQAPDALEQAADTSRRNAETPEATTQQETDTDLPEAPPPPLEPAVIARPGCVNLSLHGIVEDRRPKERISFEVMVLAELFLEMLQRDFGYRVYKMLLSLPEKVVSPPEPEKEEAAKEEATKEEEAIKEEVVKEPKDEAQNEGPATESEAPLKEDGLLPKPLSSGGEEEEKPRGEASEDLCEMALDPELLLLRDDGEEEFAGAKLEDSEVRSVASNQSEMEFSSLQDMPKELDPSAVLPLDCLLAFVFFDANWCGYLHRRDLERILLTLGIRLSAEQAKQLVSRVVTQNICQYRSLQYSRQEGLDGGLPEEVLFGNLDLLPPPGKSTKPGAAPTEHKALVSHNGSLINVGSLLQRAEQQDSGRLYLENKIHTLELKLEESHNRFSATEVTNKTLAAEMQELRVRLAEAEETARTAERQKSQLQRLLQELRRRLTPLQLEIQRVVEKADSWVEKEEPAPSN
UniProt Q9Y3X0: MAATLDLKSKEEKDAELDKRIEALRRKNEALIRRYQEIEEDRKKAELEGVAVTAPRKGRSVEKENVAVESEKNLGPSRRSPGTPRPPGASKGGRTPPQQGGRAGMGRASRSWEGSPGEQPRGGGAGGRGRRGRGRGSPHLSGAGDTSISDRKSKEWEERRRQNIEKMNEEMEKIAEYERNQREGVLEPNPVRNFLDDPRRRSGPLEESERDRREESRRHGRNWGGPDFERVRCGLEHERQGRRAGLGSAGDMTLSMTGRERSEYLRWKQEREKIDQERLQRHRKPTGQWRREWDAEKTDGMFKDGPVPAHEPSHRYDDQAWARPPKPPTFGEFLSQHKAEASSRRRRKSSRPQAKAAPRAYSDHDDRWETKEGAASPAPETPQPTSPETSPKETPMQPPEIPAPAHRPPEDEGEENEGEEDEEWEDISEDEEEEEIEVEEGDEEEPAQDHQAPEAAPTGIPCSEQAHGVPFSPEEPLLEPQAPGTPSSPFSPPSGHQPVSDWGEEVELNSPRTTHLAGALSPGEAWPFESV
UniProt Q92851: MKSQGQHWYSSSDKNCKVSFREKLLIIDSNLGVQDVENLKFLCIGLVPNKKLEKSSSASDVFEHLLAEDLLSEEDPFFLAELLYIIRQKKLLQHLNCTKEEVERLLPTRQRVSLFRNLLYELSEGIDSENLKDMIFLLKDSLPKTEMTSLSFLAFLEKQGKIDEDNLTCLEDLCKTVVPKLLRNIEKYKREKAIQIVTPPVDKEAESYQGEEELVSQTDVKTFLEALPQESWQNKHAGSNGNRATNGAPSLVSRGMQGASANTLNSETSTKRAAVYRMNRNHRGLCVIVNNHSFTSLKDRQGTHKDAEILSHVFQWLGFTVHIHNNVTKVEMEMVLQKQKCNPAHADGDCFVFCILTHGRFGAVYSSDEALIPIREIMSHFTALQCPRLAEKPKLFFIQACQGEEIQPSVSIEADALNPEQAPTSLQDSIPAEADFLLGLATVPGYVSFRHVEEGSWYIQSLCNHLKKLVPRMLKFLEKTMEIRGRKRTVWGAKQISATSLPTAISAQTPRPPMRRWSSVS
UniProt O60826, whole entry, looked up: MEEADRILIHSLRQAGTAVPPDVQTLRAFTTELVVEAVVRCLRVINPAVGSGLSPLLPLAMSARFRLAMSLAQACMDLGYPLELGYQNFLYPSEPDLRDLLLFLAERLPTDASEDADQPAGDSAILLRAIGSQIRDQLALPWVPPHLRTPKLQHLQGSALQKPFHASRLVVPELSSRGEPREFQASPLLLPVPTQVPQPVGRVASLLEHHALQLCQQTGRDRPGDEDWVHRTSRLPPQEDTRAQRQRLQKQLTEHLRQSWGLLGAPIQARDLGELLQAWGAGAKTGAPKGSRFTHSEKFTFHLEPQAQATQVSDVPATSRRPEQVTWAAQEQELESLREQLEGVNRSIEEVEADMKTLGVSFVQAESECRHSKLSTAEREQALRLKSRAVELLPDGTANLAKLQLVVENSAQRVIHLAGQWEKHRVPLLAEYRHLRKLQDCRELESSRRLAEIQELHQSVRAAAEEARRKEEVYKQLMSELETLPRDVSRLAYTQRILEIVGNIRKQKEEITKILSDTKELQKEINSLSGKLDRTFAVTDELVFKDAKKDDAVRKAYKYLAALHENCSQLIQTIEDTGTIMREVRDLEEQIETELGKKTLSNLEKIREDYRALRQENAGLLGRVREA

Legend:
Experiment in all cases: log2 fold change, soluble protein after heating vs DMSO (PISA); higher = thermal stabilisation; K562 lysate, 10 uM; active = over 0.2 and 3.5 SD of the protein, either way, in both replicates (recomputed)
[1] = compound: C#Cc1cccc(Nc2ncnc3cc(OCCOC)c(OCCOC)cc23)c1 [erlotinib]
Summary of the method: (§1)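 Log-two fold change in thermal stability relative to solvent controls is reported from duplicates. For each sample, crude K562 extract from dounce-homogenised pellets in PBS pH 7.4 with 1 mM MgCl2, at 1 mg/mL protein, was treated with 10 μM compound for 30 min. Aliquots heated for 3 min across 48°C-58°C were pooled, brought to 0.5% NP-40 at 4°C and cleared at 21,000xg for 90 min. The supernatant was quantified by TMTpro 16plex LC-MS/MS with channel sums equalised.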

[2] = compound: C/C(=N\NC(=O)C1=CC(=CC=C1)S(=O)(=O)N2CCOCC2)/C3=C(C=CC(=C3)Cl)O
Summary of the method: as §1

[3] = compound: C1=CC(=CC=C1C2=NC3=C(N2)C=C(C=C3)C(=O)N)OC4=CC=C(C=C4)Cl
Summary of the method: as §1

[4] = compound: C1=CC2=C(C=CC(=C2)/C=C\3/C(=O)NC(=NCC4=CC=CS4)S3)N=C1
Summary of the method: as §1

[5] = compound: C1=CC2=NC=CN=C2C=C1/C=C/3\C(=O)NC(=O)S3
Summary of the method: as §1

[6] = compound: C1=CC=C(C=C1)C2=NC(=C(N2)C3=CC=NC=C3)C4=CC(=C(C=C4)Cl)O
Summary of the method: as §1

[7] = compound: C1=CC=C2C(=C1)C3=NNC4=CC=CC(=C43)C2=O
Summary of the method: as §1

[8] = compound: C1CCN(C1)C(=O)NC2=CC=CC(=C2)NC3=NC=C(C(=N3)NCCC4=CN=CN4)Br
Summary of the method: as §1

[9] = compound: C1CN(CCC1(CC2=CC=C(C=C2)Cl)N)C3=NC=NC4=C3C=CN4
Summary of the method: as §1

[10] = compound: C1COCCN1CCN2C3=CC=CC=C3N=C2NC(=O)C4=CC(=CC=C4)[N+](=O)[O-] [IRAK-1-4 Inhibitor I]
Summary of the method: as §1

[11] = compound: C=CC(=O)N1CCC[C@@H](n2nc(-c3ccc(Oc4ccccc4)cc3)c3c(N)ncnc32)C1 [ibrutinib]
Summary of the method: as §1

[12] = compound: CC(=O)c1cnc2ccc(-c3cc(Cl)c(O)c(Cl)c3)nc2c1N[C@H]1CC[C@H](CN(C)C)CC1
Summary of the method: as §1

[13] = compound: CC(C)(C)Cn1c(N)nc2ccc(-c3[nH]c(C(C)(C)C)nc3-c3ccc(F)cc3)nc21 [ralimetinib]
Summary of the method: as §1

[14] = compound: CC(C)(O)CC(=O)NCCn1ccc2ncnc(Nc3ccc(Oc4cccc(C(F)(F)F)c4)c(Cl)c3)c21
Summary of the method: as §1

[15] = compound: CC(C)C1=C2N=C(C=C(N2N=C1)NCC3=CC=CC=C3)NCCCCCCN
Summary of the method: as §1

[16] = compound: CC1=C(C(CC(=O)N1)C2=CC=C(C=C2)C(F)(F)F)C(=O)NC3=C(C=C4C(=C3)C=NN4)F
Summary of the method: as §1

[17] = compound: CC1=C(C2=C(C=C1)C(=O)C3=CC=CC=C3N2CCCN)C
Summary of the method: as §1

[18] = compound: CC1=C(C=C(C=C1)NC(=O)C2=CC(=CC=C2)C(C)(C)C#N)NC3=CC4=C(C=C3)N=CN(C4=O)C
Summary of the method: as §1

[19] = compound: CC1=C(C=C(C=C1)NC(=O)C2=CC(=CC=C2)N(C)C)NC(=O)C3=CC=C(C=C3)O
Summary of the method: as §1

[20] = compound: CC1=CC=C(C=C1)SC2=C3C=C(SC3=CN=C2)C(=O)N
Summary of the method: as §1

Measured: log2 fold change

CD151 (UniProt P48509)
inactive: [1] -0.038 | [2] -0.042 | [3] -0.041 | [4] -0.061 | [5] 0.085 | [6] 0.054 | [7] 0.117 | [8] 0 | [9] -0.268 | [10] 0.036 | [11] -0.054 | [12] -0.012 | [13] -0.016 | [14] -0.051 | [15] -0.017 | [16] 0.089 | [17] -0.351 | [18] -0.243 | [19] -0.03 | [20] -0.004

CARM1 (UniProt Q86X55)
inactive: [1] 0.002 | [2] 0.03 | [3] 0.009 | [4] -0.019 | [5] 0.008 | [6] 0.001 | [7] -0.049 | [8] -0.019 | [9] 0.02 | [10] 0 | [11] -0.006 | [12] 0.004 | [13] -0.014 | [14] -0.025 | [15] -0.007 | [16] -0.025 | [17] 0.009 | [18] 0.014 | [19] -0.05 | [20] -0.01

CCDC43 (UniProt Q96MW1)
inactive: [1] -0.053 | [2] 0.021 | [3] 0.028 | [4] -0.065 | [5] -0.035 | [6] -0.007 | [7] 0.006 | [8] 0.012 | [9] -0.012 | [10] -0.018 | [11] 0.004 | [12] -0.019 | [13] 0.057 | [14] 0.02 | [15] -0.021 | [16] -0.005 | [17] -0.03 | [18] 0.01 | [19] 0.01 | [20] -0.027

CCDC124 (UniProt Q96CT7)
inactive: [1] -0.007 | [2] -0.054 | [3] 0.016 | [4] 0.003 | [5] -0.037 | [6] -0.005 | [7] 0.049 | [8] 0.037 | [9] -0.049 | [10] -0.015 | [11] 0.045 | [12] -0.013 | [13] 0.003 | [14] 0.005 | [15] -0.013 | [16] 0.007 | [17] 0.049 | [18] -0.022 | [19] -0.002 | [20] -0.014

CCNC (UniProt P24863)
inactive: [1] 0.081 | [2] -0.158 | [3] -0.078 | [4] -0.102 | [5] 0.127 | [6] -0.045 | [7] 0.163 | [8] -0.087 | [9] -0.049 | [10] -0.008 | [11] -0.04 | [12] 0.087 | [13] 0.026 | [14] 0.011 | [15] 0.02 | [16] -0.05 | [17] 0.034 | [18] 0.061 | [19] 0.016 | [20] 0.184

CCT8 (UniProt P50990)
inactive: [1] -0.001 | [2] 0.009 | [3] -0.002 | [4] -0.015 | [5] -0.024 | [6] 0.001 | [7] 0.015 | [8] 0.013 | [9] -0.002 | [10] 0.007 | [11] 0 | [12] -0.017 | [13] 0.001 | [14] -0.007 | [15] -0.007 | [16] -0.026 | [17] -0.001 | [18] -0.004 | [19] -0.004 | [20] -0.005

CARS2 (UniProt Q9HA77)
inactive: [1] -0.11 | [2] -0.021 | [3] 0.055 | [4] -0.029 | [5] -0.001 | [6] -0.068 | [7] 0.008 | [8] -0.041 | [9] -0.04 | [10] -0.022 | [11] -0.015 | [12] -0.034 | [13] 0.005 | [14] 0.013 | [15] -0.048 | [16] 0.014 | [17] -0.002 | [18] 0.058 | [19] 0.028 | [20] 0.026

CCDC93 (UniProt Q567U6)
inactive: [1] 0.055 | [2] 0 | [3] 0.032 | [4] -0.006 | [5] 0.006 | [6] -0.007 | [7] -0.066 | [8] -0.006 | [9] -0.011 | [10] 0.005 | [11] -0.006 | [12] -0.017 | [13] -0.01 | [14] 0.002 | [15] -0.017 | [16] 0.023 | [17] 0.021 | [18] -0.014 | [19] 0.038 | [20] 0.055

CCNDBP1 (UniProt O95273)
inactive: [1] 0 | [2] 0.058 | [3] -0.05 | [4] -0.133 | [5] -0.011 | [6] 0.003 | [7] 0.113 | [8] -0.007 | [9] 0.055 | [10] -0.01 | [11] -0.032 | [12] 0.039 | [13] -0.02 | [14] 0.015 | [15] -0.018 | [16] 0.011 | [17] -0.061 | [18] -0.009 | [19] -0.007 | [20] -0.019

CCZ1 (UniProt P86791)
inactive: [1] 0.015 | [2] -0.049 | [3] -0.009 | [4] -0.027 | [5] -0.012 | [6] -0.018 | [7] -0.004 | [8] -0.01 | [9] 0.032 | [10] -0.002 | [11] 0.011 | [12] 0.034 | [13] -0.007 | [14] -0.003 | [15] -0.02 | [16] 0.019 | [17] 0.013 | [18] 0.008 | [19] 0.016 | [20] 0.009

CAST isoform 6 (UniProt P20810)
inactive: [1] -0.025 | [2] -0.028 | [3] 0.057 | [4] 0.008 | [5] -0.015 | [6] -0.006 | [7] -0.007 | [8] 0.001 | [9] 0.005 | [10] 0.01 | [11] -0.007 | [12] -0.011 | [13] -0.009 | [14] -0.025 | [15] -0.01 | [16] -0.004 | [17] -0.02 | [18] -0.032 | [19] 0.021 | [20] -0.036

CCDC117 (UniProt Q8IWD4)
inactive: [1] -0.066 | [2] -0.057 | [3] 0.074 | [4] -0.036 | [5] -0.029 | [6] -0.041 | [7] -0.041 | [8] -0.031 | [9] 0.069 | [10] 0.013 | [11] -0.034 | [12] 0.008 | [13] 0.062 | [14] -0.089 | [15] -0.057 | [16] -0.025 | [17] -0.017 | [18] 0.052 | [19] -0.047 | [20] -0.011

CCAR2 (UniProt Q8N163)
inactive: [1] -0.004 | [2] -0.006 | [3] -0.003 | [4] -0.01 | [5] 0.01 | [6] 0.005 | [7] 0.001 | [8] 0 | [9] 0.001 | [10] -0.009 | [11] 0.025 | [12] -0.019 | [13] 0.012 | [14] -0.006 | [15] -0.018 | [16] 0 | [17] 0.01 | [18] 0.003 | [19] 0.015 | [20] -0.005

CCDC9 (UniProt Q9Y3X0)
inactive: [1] 0 | [2] 0.03 | [3] 0.034 | [4] 0.03 | [5] -0.022 | [6] 0.016 | [7] 0.007 | [8] 0.021 | [9] -0.038 | [10] 0.004 | [11] 0.065 | [12] -0.006 | [13] 0.001 | [14] -0.014 | [15] -0.013 | [16] -0.071 | [17] -0.051 | [18] 0.009 | [19] -0.02 | [20] -0.013

CASP10 isoform 4 (UniProt Q92851)
inactive: [1] 0.008 | [2] 0.033 | [3] -0.01 | [4] -0.016 | [5] -0.001 | [6] 0.039 | [7] -0.006 | [8] 0.002 | [9] 0.012 | [10] -0.018 | [11] 0.013 | [12] 0.005 | [13] 0.027 | [14] -0.02 | [15] 0.001 | [16] 0.042 | [17] 0.025 | [18] 0.004 | [19] -0.001 | [20] 0.028

CCDC22 (UniProt O60826)
inactive: [1] -0.039 | [2] -0.007 | [3] 0.002 | [4] 0.02 | [5] -0.03 | [6] -0.017 | [7] -0.06 | [8] 0.007 | [9] 0.03 | [10] 0.011 | [11] 0.006 | [12] 0.033 | [13] -0.005 | [14] -0.045 | [15] -0.009 | [16] 0.005 | [17] 0.001 | [18] -0.01 | [19] 0.025 | [20] -0.027
